Measured values taken from paper doi:10.1101/2020.05.30.124925.
No constants are given. Whether binding was seen depends on the method and setting. Binding seen in cells or lysates may run through a third protein. These calls come from enrichment with a bait or labelling near it, and not all partners need be listed. No binding means not detected with the bait. Where a sequence is shown, tags or fusion partners need not be part of it.

Sequences of proteins named here, by UniProt entry; tags and fusion partners are left off.
UniProt P38903: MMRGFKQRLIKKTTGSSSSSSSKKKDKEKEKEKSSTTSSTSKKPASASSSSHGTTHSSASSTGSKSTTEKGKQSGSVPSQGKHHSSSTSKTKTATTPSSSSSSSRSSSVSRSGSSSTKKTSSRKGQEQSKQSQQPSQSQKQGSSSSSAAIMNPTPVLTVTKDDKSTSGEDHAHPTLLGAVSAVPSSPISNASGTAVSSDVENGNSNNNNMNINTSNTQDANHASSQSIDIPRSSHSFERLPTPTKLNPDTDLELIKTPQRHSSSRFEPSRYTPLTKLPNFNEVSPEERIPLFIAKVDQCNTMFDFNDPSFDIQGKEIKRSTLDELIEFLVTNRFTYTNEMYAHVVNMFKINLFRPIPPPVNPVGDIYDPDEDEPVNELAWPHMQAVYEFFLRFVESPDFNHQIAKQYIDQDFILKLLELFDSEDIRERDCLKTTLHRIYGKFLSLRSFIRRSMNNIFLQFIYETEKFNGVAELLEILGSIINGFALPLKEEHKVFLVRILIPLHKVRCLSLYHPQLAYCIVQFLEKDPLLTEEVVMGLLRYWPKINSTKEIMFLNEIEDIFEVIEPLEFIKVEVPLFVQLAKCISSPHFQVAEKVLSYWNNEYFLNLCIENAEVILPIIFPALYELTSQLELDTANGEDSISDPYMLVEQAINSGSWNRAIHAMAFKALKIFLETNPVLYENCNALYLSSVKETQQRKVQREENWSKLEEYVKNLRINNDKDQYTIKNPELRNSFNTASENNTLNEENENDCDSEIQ

Biological target: Rts1-HKMT-myc (S. cerevisiae) (UniProt P38903)
Assay: proximity labelling

B1: Rck2-3A (L550A/L553A/E555A)-protA-H3-HA (protein, UniProt P38623 1-610)
chain: MLKIKALFSKKKPDQADLSQESKKPFKGKTRSSGTNNKDVSQITSSPKKSFQDKNIVQYPSVVADDHHMKSLTDELVTTIDSDSSPSDNITTENVETVTSVPAIDVHESSEGQLSSDPLISDESLSEQSEIISDIQDDSTDDDNMEDEIPEKSFLEQKELIGYKLINKIGEGAFSKVFRAIPAKNSSNEFLTKNYKAVAIKVIKKADLSSINGDHRKKDKGKDSTKTSSRDQVLKEVALHKTVSAGCSQIVAFIDFQETDSYYYIIQELLTGGEIFGEIVRLTYFSEDLSRHVIKQLALAVKHMHSLGVVHRDIKPENLLFEPIEFTRSIKPKLRKSDDPQTKADEGIFTPGVGGGGIGIVKLADFGLSKQIFSKNTKTPCGTVGYTAPEVVKDEHYSMKVDMWGIGCVLYTMLCGFPPFYDEKIDTLTEKISRGEYTFLKPWWDEISAGAKNAVAKLLELEPSKRYDIDQFLDDPWLNTFDCLPKEGESSQKKAGTSERRHPHKKQFQLFQRDSSLLFSPAAVAMRDAFDIGNAVKRTEEDRMGTRGGAGSAAADEELEDSYSGAQGDEQLEQNMFQLTLDTSTILQRRKKVQENDVGPTIPISATIRE
With B1 the binding was “no binding”.
